This assay concerns the target human PD-1 (human) (UniProt Q15116). Description: ELISA on coated huPD-1. (ELISA stands for enzyme-linked immunosorbent assay.)

The chains behind the UniProt entries cited, without tags or fusion partners. Residues count along the entry.
UniProt Q15116, residues 25-167: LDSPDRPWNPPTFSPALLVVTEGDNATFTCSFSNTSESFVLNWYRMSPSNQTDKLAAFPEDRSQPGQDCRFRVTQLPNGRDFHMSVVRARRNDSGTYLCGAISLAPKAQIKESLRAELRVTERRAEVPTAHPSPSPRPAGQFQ

No constants are given. Whether binding was seen depends on the method and setting. Some results given as binding are weak or reduced against the parent protein; the word gives no strength.

B1: PMAB244 (antibody, human IgG1, kappa, V domains shown)
VH: QVQLVQSGAEVKKPGASVKVSCKASGYSFTTYYMHWVRQAPGQGLEWMGIIQPSGGSTSYAQKFQGRVTMTRDTSTSTVYMELSSLRSEDTAVYYCASGWVYWGQGTLVTVSS
VL: DIQMTQSPSSLSASVGDRVTITCQASRDIKNYLAWYQQKPGKAPKLLIYAASSLQSGVPSRFSGSGSGTDFTLTISSLQPEDFATYYCQQSYSTPPTFGPGTKVDIKR
Regarding B1, the binding result was “binds”.

B2: PMAB260 (antibody, human IgG1, kappa, V domains shown)
VH: QVQLVQSGAEVKKPGASVKVSCKASGYSFTTYYMHWVRQAPGQGLEWMGIIQPSGGSTSYAQKFQGRVTMTRDTSTSTVYMELSSLRSEDTAVYYCASGWVYWGQGTLVTVSS
VL: DIQMTQSPSSLSASVGDRVTITCRASQDIKSYLAWYQQKPGKAPKLLIYAASSLQSGVPSRFSGSGSGTDFTLTISSLQPEDFATYYCQQSYSTPPTFGPGTKVDIKR
B2: the binding entry is reported as “binds”.

B3: PMAB248 (antibody, human IgG1, kappa, V domains shown)
VH: QVQLVQSGAEVKKPGASVKVSCKASGYSFTTYYMHWVRQAPGQGLEWMGIIQPSGGSTSYAQKFQGRVTMTRDTSTSTVYMELSSLRSEDTAVYYCASGWVYWGQGTLVTVSS
VL: DIQMTQSPSSLSASVGDRVTITCRASQDIKNYLAWYQQKPGKAPKLLIYAASSLQSGVPSRFSGSGSGTDFTLTISSLQPEDFATYYCQQSYSTPPTFGPGTKVDIKR
Regarding B3, the binding entry was “binds”.

B4: PMAB247 (antibody, human IgG1, kappa, V domains shown)
VH: QVQLVQSGAEVKKPGASVKVSCKASGYTFTSYYMHWVRQAPGQGLEWMGIIQPSGGSTSYAQKFQGRVTMTRDTSTSTVYMELSSLRSEDTAVYYCASGWVYWGQGTLVTVSS
VL: DIQMTQSPSSLSASVGDRVTITCQASRDIKNYLAWYQQKPGKAPKLLIYAASSLQSGVPSRFSGSGSGTDFTLTISSLQPEDFATYYCQQSYSTPPTFGPGTKVDIKR
Turning to B4, the binding result is given as “binds”.

B5: PMAB253 (antibody, human IgG1, kappa, V domains shown)
VH: QVQLVQSGAEVKKPGASVKVSCKASGYSFTTYYMHWVRQAPGQGLEWMGIIQPSGGSTSYAQKFQGRVTMTRDTSTSTVYMELSSLRSEDTAVYYCASGWVYWGQGTLVTVSS
VL: DIQMTQSPSSLSASVGDRVTITCQASQDISNYLAWYQQKPGKAPKLLIYAASSLQSGVPSRFSGSGSGTDFTLTISSLQPEDFATYYCQQSYSTPPTFGPGTKVDIKR
Regarding B5, the binding result is listed as “binds”.

B6: PMAB254 (antibody, human IgG1, kappa, V domains shown)
VH: QVQLVQSGAEVKKPGASVKVSCKASGYSFTTYYMHWVRQAPGQGLEWMGIIQPSGGSTSYAQKFQGRVTMTRDTSTSTVYMELSSLRSEDTAVYYCASGWVYWGQGTLVTVSS
VL: DIQMTQSPSSLSASVGDRVTITCQASQDIKSYLAWYQQKPGKAPKLLIYAASSLQSGVPSRFSGSGSGTDFTLTISSLQPEDFATYYCQQSYSTPPTFGPGTKVDIKR
Regarding B6, the binding entry is given as “binds”.

B7: PMAB258 (antibody, human IgG1, kappa, V domains shown)
VH: QVQLVQSGAEVKKPGASVKVSCKASGYSFTTYYMHWVRQAPGQGLEWMGIIQPSGGSTSYAQKFQGRVTMTRDTSTSTVYMELSSLRSEDTAVYYCASGWVYWGQGTLVTVSS
VL: DIQMTQSPSSLSASVGDRVTITCRASQSIKNYLAWYQQKPGKAPKLLIYAASSLQSGVPSRFSGSGSGTDFTLTISSLQPEDFATYYCQQSYSTPPTFGPGTKVDIKR
As for B7, the binding entry is on record as “binds”.

B8: PMAB251 (antibody, human IgG1, kappa, V domains shown)
VH: QVQLVQSGAEVKKPGASVKVSCKASGYSFTTYYMHWVRQAPGQGLEWMGIIQPSGGSTSYAQKFQGRVTMTRDTSTSTVYMELSSLRSEDTAVYYCASGWVYWGQGTLVTVSS
VL: DIQMTQSPSSLSASVGDRVTITCRASRDIKSYLAWYQQKPGKAPKLLIYAASSLQSGVPSRFSGSGSGTDFTLTISSLQPEDFATYYCQQSYSTPPTFGPGTKVDIKR
On to B8, for which the binding entry is “binds”.

B9: PMAB265 (antibody, human IgG1, kappa, V domains shown)
VH: QVQLVQSGAEVKKPGASVKVSCKASGYSFTTYYMHWVRQAPGQGLEWMGIIQPSGGSTSYAQKFQGRVTMTRDTSTSTVYMELSSLRSEDTAVYYCASGWVYWGQGTLVTVSS
VL: DIQMTQSPSSLSASVGDRVTITCQASQSIKSYLAWYQQKPGKAPKLLIYAASSLQSGVPSRFSGSGSGTDFTLTISSLQPEDFATYYCQQSYSTPPTFGPGTKVDIKR
B9: the binding result is recorded as “binds”.

B10: PMAB264 (antibody, human IgG1, kappa, V domains shown)
VH: QVQLVQSGAEVKKPGASVKVSCKASGYSFTTYYMHWVRQAPGQGLEWMGIIQPSGGSTSYAQKFQGRVTMTRDTSTSTVYMELSSLRSEDTAVYYCASGWVYWGQGTLVTVSS
VL: DIQMTQSPSSLSASVGDRVTITCQASQSISNYLAWYQQKPGKAPKLLIYAASSLQSGVPSRFSGSGSGTDFTLTISSLQPEDFATYYCQQSYSTPPTFGPGTKVDIKR
B10: the binding entry is listed as “binds”.

B11: PMAB245 (antibody, human IgG1, kappa, V domains shown)
VH: QVQLVQSGAEVKKPGASVKVSCKASGYTFTTYYMHWVRQAPGQGLEWMGIIQPSGGSTSYAQKFQGRVTMTRDTSTSTVYMELSSLRSEDTAVYYCASGWVYWGQGTLVTVSS
VL: DIQMTQSPSSLSASVGDRVTITCQASRDIKNYLAWYQQKPGKAPKLLIYAASSLQSGVPSRFSGSGSGTDFTLTISSLQPEDFATYYCQQSYSTPPTFGPGTKVDIKR
With B11, the binding result was “binds”.

B12: PMAB261 (antibody, human IgG1, kappa, V domains shown)
VH: QVQLVQSGAEVKKPGASVKVSCKASGYSFTTYYMHWVRQAPGQGLEWMGIIQPSGGSTSYAQKFQGRVTMTRDTSTSTVYMELSSLRSEDTAVYYCASGWVYWGQGTLVTVSS
VL: DIQMTQSPSSLSASVGDRVTITCRASRSISNYLAWYQQKPGKAPKLLIYAASSLQSGVPSRFSGSGSGTDFTLTISSLQPEDFATYYCQQSYSTPPTFGPGTKVDIKR
With B12, the binding entry is “binds”.

B13: PMAB263 (antibody, human IgG1, kappa, V domains shown)
VH: QVQLVQSGAEVKKPGASVKVSCKASGYSFTTYYMHWVRQAPGQGLEWMGIIQPSGGSTSYAQKFQGRVTMTRDTSTSTVYMELSSLRSEDTAVYYCASGWVYWGQGTLVTVSS
VL: DIQMTQSPSSLSASVGDRVTITCRASRDISSYLAWYQQKPGKAPKLLIYAASSLQSGVPSRFSGSGSGTDFTLTISSLQPEDFATYYCQQSYSTPPTFGPGTKVDIKR
As for B13, the binding entry was “binds”.

B14: PMAB246 (antibody, human IgG1, kappa, V domains shown)
VH: QVQLVQSGAEVKKPGASVKVSCKASGYSFTSYYMHWVRQAPGQGLEWMGIIQPSGGSTSYAQKFQGRVTMTRDTSTSTVYMELSSLRSEDTAVYYCASGWVYWGQGTLVTVSS
VL: DIQMTQSPSSLSASVGDRVTITCQASRDIKNYLAWYQQKPGKAPKLLIYAASSLQSGVPSRFSGSGSGTDFTLTISSLQPEDFATYYCQQSYSTPPTFGPGTKVDIKR
For B14, the binding result is “binds”.

B15: PMAB262 (antibody, human IgG1, kappa, V domains shown)
VH: QVQLVQSGAEVKKPGASVKVSCKASGYSFTTYYMHWVRQAPGQGLEWMGIIQPSGGSTSYAQKFQGRVTMTRDTSTSTVYMELSSLRSEDTAVYYCASGWVYWGQGTLVTVSS
VL: DIQMTQSPSSLSASVGDRVTITCRASRSIKSYLAWYQQKPGKAPKLLIYAASSLQSGVPSRFSGSGSGTDFTLTISSLQPEDFATYYCQQSYSTPPTFGPGTKVDIKR
For B15, the binding result is listed as “binds”.

B16: PMAB257 (antibody, human IgG1, kappa, V domains shown)
VH: QVQLVQSGAEVKKPGASVKVSCKASGYSFTTYYMHWVRQAPGQGLEWMGIIQPSGGSTSYAQKFQGRVTMTRDTSTSTVYMELSSLRSEDTAVYYCASGWVYWGQGTLVTVSS
VL: DIQMTQSPSSLSASVGDRVTITCQASRDISSYLAWYQQKPGKAPKLLIYAASSLQSGVPSRFSGSGSGTDFTLTISSLQPEDFATYYCQQSYSTPPTFGPGTKVDIKR
For B16, the binding entry is recorded as “binds”.

B17: PMAB255 (antibody, human IgG1, kappa, V domains shown)
VH: QVQLVQSGAEVKKPGASVKVSCKASGYSFTTYYMHWVRQAPGQGLEWMGIIQPSGGSTSYAQKFQGRVTMTRDTSTSTVYMELSSLRSEDTAVYYCASGWVYWGQGTLVTVSS
VL: DIQMTQSPSSLSASVGDRVTITCQASRSISNYLAWYQQKPGKAPKLLIYAASSLQSGVPSRFSGSGSGTDFTLTISSLQPEDFATYYCQQSYSTPPTFGPGTKVDIKR
For the molecule B17, the binding result was “binds”.

B18: PMAB259 (antibody, human IgG1, kappa, V domains shown)
VH: QVQLVQSGAEVKKPGASVKVSCKASGYSFTTYYMHWVRQAPGQGLEWMGIIQPSGGSTSYAQKFQGRVTMTRDTSTSTVYMELSSLRSEDTAVYYCASGWVYWGQGTLVTVSS
VL: DIQMTQSPSSLSASVGDRVTITCRASQDISNYLAWYQQKPGKAPKLLIYAASSLQSGVPSRFSGSGSGTDFTLTISSLQPEDFATYYCQQSYSTPPTFGPGTKVDIKR
As to B18, the binding entry is “binds”.

B19: PMAB266 (antibody, human IgG1, kappa, V domains shown)
VH: QVQLVQSGAEVKKPGASVKVSCKASGYSFTTYYMHWVRQAPGQGLEWMGIIQPSGGSTSYAQKFQGRVTMTRDTSTSTVYMELSSLRSEDTAVYYCASGWVYWGQGTLVTVSS
VL: DIQMTQSPSSLSASVGDRVTITCQASQDISSYLAWYQQKPGKAPKLLIYAASSLQSGVPSRFSGSGSGTDFTLTISSLQPEDFATYYCQQSYSTPPTFGPGTKVDIKR
Regarding B19, the binding entry is recorded as “binds”.

B20: PMAB250 (antibody, human IgG1, kappa, V domains shown)
VH: QVQLVQSGAEVKKPGASVKVSCKASGYSFTTYYMHWVRQAPGQGLEWMGIIQPSGGSTSYAQKFQGRVTMTRDTSTSTVYMELSSLRSEDTAVYYCASGWVYWGQGTLVTVSS
VL: DIQMTQSPSSLSASVGDRVTITCRASRDISNYLAWYQQKPGKAPKLLIYAASSLQSGVPSRFSGSGSGTDFTLTISSLQPEDFATYYCQQSYSTPPTFGPGTKVDIKR
As to B20, the binding result is “binds”.

B21: PMAB252 (antibody, human IgG1, kappa, V domains shown)
VH: QVQLVQSGAEVKKPGASVKVSCKASGYSFTTYYMHWVRQAPGQGLEWMGIIQPSGGSTSYAQKFQGRVTMTRDTSTSTVYMELSSLRSEDTAVYYCASGWVYWGQGTLVTVSS
VL: DIQMTQSPSSLSASVGDRVTITCQASQSIKNYLAWYQQKPGKAPKLLIYAASSLQSGVPSRFSGSGSGTDFTLTISSLQPEDFATYYCQQSYSTPPTFGPGTKVDIKR
Regarding B21, the binding entry is given as “binds”.

B22: PMAB256 (antibody, human IgG1, kappa, V domains shown)
VH: QVQLVQSGAEVKKPGASVKVSCKASGYSFTTYYMHWVRQAPGQGLEWMGIIQPSGGSTSYAQKFQGRVTMTRDTSTSTVYMELSSLRSEDTAVYYCASGWVYWGQGTLVTVSS
VL: DIQMTQSPSSLSASVGDRVTITCQASRSIKSYLAWYQQKPGKAPKLLIYAASSLQSGVPSRFSGSGSGTDFTLTISSLQPEDFATYYCQQSYSTPPTFGPGTKVDIKR
B22: the binding result is reported as “binds”.
